Binding data for two substances are collected here from paper PMC9563440.

Protein sequences, listed by entry. Tags and fused reporters are not part of them.
UniProt P56539: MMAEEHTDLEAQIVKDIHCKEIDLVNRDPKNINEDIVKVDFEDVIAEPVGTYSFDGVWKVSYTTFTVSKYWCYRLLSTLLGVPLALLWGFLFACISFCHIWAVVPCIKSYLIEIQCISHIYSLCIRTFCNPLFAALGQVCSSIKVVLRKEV

Where a chain is given by its changes, count along the chain named. These are yes or no findings as the source states them, for the method shown. In cells and extracts the contact can be indirect. Some results given as binding are weak or reduced against the parent protein; the word gives no strength. For some assays here: Tags and fused reporters may be left off the sequences shown.

Experiment [1] deals with T1, caveolin-3 (Cav-3), rat heart (rat (endogenous in left ventricle tissue)) (UniProt P51638).
T1 sequence: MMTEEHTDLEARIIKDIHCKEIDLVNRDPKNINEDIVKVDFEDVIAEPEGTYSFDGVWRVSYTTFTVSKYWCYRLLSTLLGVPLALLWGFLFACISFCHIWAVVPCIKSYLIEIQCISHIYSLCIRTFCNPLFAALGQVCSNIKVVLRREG
The experiment can be described thus: co-IP; rat left ventricle tissue lysates (RIPA buffer), 50 ug lysate immunoprecipitated with 1 ug anti-Cav-3 or anti-Nav1.5 overnight, protein A/G-agarose 4 h at 4 °C, Western blot; normal hearts and hearts after I/R, with scramble or PIASy shRNA. A general note: A western blot detects proteins with antibodies after separation by electrophoresis.

Experiment [2] addresses T2, Flag-tagged Cav-3 (human Cav-3) (human) (UniProt P56539).
T2 sequence: T1 sequence with T3A, R12Q, I14V, E49V, R59K, N142S, R149K, G151V
The experiment in a line: co-IP; lysates of HEK293 cells 48 h after co-transfection with Cav-3, Nav1.5 and SUMO machinery (SUMO2/3, ubc9, PIASy); immunoprecipitated with anti-Cav-3 (or anti-Nav1.5), protein A/G-agarose, Western blot.

With “voltage-gated sodium channel 1.5 (Nav1.5), rat heart (from UniProt P15389 1-2019)”, the binding result in experiment [1] was “binds”.

For “wild-type (WT) human Nav1.5 (from UniProt Q14524 1-2016)”, the binding entry in experiment [2] is on record as “binds”.
